The record followed here is US9511052B2, “Mineralocorticoid receptor antagonists” (Merck Sharp & Dohme Corp., priority 2012, dated 2016).

Amino acid sequences for entries named in this document (tags omitted).
UniProt P08235, whole entry: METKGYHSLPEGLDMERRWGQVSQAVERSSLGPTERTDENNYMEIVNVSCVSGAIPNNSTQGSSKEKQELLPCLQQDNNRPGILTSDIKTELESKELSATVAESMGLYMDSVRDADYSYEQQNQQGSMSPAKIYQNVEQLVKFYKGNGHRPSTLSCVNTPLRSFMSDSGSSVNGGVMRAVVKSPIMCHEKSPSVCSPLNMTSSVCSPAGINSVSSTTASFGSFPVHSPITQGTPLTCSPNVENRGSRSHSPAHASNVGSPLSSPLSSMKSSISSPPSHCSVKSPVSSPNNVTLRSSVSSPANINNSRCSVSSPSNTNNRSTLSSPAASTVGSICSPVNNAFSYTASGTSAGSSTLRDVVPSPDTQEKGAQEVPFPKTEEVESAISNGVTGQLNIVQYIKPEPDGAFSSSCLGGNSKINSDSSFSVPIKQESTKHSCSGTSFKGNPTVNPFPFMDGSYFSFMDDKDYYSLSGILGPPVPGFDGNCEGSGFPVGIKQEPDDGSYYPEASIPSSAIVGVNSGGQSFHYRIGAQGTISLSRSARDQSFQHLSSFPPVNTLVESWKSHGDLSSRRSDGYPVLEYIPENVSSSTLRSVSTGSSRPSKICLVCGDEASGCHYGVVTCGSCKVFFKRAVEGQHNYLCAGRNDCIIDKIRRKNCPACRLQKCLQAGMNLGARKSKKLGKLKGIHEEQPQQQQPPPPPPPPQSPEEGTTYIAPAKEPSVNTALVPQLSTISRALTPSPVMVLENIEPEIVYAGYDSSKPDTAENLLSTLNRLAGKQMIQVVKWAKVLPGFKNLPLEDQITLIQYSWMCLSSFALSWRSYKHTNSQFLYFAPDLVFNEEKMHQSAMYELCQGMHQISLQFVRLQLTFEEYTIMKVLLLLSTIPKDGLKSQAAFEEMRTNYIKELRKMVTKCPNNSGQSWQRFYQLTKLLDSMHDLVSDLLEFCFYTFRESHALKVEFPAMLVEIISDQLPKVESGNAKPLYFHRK

The target of the assay is full-length human Mineralocorticoid Receptor (MR) (Homo sapiens, UniProt P08235). The assay is described as follows: human MR NH Pro assay (PathHunter Protein:Protein interaction assay), MR antagonism. Particulars: read-out: IP; IP = inflection point of the dose-response curve; CHO-K1 cells overexpressing human MR, aldosterone about 0.3 nM to about 1 nM, 6 hours at 37° C. The text has this: The activity of the compounds of the present invention regarding mineralocorticoid receptor antagonism can be evaluated using the following assay.
Assessment of MR Potency in HMR NH Pro Assay
The human MR NH Pro assay is a commercially available PathHunter™ Protein:Protein interaction assay (DiscoveRx; http://www.discoverx.com/nhrs/prod-nhrs.php) that measures the ability of compounds to antagonize full-length human Mineralocorticoid Receptor (MR) binding to a coactivator peptide. […]
Compounds were assessed for MR antagonist activity by incubating the cells with a titrating dose of compound in F12K w/Glutamine and phenol red culture media (Invitrogen 11765-047) supplemented with 1% Charcoal/Dextran Treated FBS (Hyclone #SH30068.01) and aldosterone (0.3 nM to about 1 nM) for 6 hours at 37° C. Cells were then treated with DiscoveRx detection reagent for 1 hour at rt and read using an Envision luminescence plate reader. % activity was measured relative to cells treated with aldosterone alone and IC50 and IP values were calculated using ADA software. […]
2. Cells are collected with 0.05% trypsin and the cell suspension is spun and resuspended in a volume of F12+1.5% CD-FBS and counted. […]
8. Plates were read on Envision (PerkinElmer) luminesence plate reader and analyzed using ADA.

Structures were worked out from names or drawings and are uncertain.

Consider `CCC(c1ccc(C#N)cc1)(C(C)O)n1ncc2c(NS(C)(=O)=O)cccc21` (single isomer, unassigned), for which the IC50 worked out at 343 nM.
